Assay results as given in paper PMC12796736.
Results are given in words; binding and its absence hold for the method and conditions named. Some binding calls cover weakened binding; strength is not graded here. Tags and fused reporters may be left off the sequences shown.

Protein sequences, listed by entry. Tags and fused reporters are not part of them.
UniProt P09471: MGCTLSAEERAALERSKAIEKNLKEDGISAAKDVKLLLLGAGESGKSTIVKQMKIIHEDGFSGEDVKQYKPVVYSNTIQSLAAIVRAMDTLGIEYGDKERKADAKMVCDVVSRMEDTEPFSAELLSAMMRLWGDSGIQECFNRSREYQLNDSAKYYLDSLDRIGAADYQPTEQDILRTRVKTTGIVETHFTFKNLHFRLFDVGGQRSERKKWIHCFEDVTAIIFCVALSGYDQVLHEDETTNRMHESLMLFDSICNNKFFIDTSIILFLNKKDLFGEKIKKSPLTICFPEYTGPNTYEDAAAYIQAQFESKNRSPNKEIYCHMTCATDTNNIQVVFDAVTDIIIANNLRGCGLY

What was measured:
[1] = target: T1, MBP-(RASA3 C-terminal region)-His6 fusion protein (human) (UniProt Q14644); experiment: pull-down; as a9, but G⍺o prebound to GTPγS; with 2 mM CaCl2; both purified
T1 sequence: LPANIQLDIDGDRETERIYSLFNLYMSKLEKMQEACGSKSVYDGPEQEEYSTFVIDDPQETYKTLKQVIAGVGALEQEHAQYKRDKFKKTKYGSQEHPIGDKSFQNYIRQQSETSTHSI

[2] = target: T1, MBP-(RASA3 C-terminal region)-His6 fusion protein (human); experiment: condition: only without added Ca^2+ (G⍺o-GTPγS, 1 μM); pull-down; as a9, but G⍺o prebound to GTPγS; no Ca^2+; both purified
[3] = target: T1, MBP-(RASA3 C-terminal region)-His6 fusion protein (human); experiment: condition: only without added Ca^2+ (G⍺o-GDP, 1 μM); pull-down; MBP-(RASA3 C-terminal region)-His6 (1 μM) prebound to Ni-NTA resin; G⍺o (1 μM) prebound to GDP; no Ca^2+; same buffer as a5; Coomassie and densitometry, MBP-His6 as background control; both purified

For “recombinant human G⍺o (from UniProt P09471 1-354)”, the binding [1] was “binds weakly”, the binding [2] was “no binding” and the binding [3] was “no binding”.
